Among the data in PMC3297578 are binding values, retold here.

Amino acid sequences for entries named in this document (tags omitted).
UniProt Q11107: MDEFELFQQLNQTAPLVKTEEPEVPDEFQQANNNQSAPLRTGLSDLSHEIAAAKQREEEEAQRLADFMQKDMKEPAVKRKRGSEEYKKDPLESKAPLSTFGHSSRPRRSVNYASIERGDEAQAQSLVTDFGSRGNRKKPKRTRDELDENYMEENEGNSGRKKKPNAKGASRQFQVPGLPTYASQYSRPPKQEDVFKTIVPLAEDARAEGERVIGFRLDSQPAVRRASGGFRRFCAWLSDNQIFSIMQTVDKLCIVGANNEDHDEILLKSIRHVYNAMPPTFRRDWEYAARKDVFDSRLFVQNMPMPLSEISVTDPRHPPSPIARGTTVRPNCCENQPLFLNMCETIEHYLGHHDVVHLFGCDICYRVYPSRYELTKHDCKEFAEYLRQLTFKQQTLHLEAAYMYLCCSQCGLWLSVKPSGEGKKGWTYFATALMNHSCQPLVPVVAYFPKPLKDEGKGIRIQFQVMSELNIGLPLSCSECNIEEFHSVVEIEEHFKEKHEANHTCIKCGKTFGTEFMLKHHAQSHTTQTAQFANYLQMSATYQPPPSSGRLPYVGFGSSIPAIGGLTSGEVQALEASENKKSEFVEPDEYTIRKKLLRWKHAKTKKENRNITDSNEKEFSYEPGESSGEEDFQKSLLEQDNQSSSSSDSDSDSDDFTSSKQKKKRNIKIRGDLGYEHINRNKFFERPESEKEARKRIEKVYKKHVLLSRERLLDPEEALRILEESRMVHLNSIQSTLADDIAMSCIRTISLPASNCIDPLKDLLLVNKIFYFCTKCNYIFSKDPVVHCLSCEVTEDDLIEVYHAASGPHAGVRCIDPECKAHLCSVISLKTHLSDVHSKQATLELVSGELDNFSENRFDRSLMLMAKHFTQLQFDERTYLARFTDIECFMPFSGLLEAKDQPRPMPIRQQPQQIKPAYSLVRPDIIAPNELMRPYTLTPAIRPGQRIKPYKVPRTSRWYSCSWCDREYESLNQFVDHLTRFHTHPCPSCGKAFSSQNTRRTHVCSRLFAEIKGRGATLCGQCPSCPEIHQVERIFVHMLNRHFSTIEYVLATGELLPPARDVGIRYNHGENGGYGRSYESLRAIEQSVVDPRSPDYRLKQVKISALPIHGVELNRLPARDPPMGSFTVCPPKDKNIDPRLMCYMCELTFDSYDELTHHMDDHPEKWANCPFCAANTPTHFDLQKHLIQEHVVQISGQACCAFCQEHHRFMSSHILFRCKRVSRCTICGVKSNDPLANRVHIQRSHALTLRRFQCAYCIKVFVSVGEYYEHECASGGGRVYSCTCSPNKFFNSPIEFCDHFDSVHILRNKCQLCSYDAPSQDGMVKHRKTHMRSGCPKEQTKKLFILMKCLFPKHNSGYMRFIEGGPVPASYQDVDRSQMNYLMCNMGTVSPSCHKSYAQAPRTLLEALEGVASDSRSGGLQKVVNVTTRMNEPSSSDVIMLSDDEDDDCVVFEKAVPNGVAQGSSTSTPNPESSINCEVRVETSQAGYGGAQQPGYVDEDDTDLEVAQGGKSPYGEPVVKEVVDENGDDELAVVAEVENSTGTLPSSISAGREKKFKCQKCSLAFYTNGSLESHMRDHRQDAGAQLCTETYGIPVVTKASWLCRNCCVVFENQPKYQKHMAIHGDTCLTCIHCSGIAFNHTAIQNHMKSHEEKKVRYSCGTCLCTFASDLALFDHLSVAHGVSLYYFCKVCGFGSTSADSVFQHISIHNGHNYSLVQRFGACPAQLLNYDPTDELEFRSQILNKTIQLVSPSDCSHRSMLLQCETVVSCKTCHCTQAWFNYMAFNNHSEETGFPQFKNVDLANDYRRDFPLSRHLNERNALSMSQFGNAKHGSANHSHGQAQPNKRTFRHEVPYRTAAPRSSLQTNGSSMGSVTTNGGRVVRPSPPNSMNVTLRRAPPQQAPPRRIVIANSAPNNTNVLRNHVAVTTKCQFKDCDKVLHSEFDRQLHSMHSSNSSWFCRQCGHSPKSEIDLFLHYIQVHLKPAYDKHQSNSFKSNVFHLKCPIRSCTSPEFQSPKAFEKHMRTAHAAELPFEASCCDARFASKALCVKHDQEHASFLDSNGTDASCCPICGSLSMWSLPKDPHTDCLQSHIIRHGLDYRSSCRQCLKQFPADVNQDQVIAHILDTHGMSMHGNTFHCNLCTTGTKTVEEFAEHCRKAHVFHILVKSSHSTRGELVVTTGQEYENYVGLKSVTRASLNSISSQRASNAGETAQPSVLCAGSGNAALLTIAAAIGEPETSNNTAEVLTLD

Results are given in words; binding and its absence hold for the method and conditions named. In cells and extracts the contact can be indirect. These calls come from enrichment with a bait or labelling near it, and not all partners need be listed. Tags and fused reporters may be left off the sequences shown.

In this test the target is T1, LIN-61::GFP (C. elegans) (UniProt B2D6M2).
T1 sequence: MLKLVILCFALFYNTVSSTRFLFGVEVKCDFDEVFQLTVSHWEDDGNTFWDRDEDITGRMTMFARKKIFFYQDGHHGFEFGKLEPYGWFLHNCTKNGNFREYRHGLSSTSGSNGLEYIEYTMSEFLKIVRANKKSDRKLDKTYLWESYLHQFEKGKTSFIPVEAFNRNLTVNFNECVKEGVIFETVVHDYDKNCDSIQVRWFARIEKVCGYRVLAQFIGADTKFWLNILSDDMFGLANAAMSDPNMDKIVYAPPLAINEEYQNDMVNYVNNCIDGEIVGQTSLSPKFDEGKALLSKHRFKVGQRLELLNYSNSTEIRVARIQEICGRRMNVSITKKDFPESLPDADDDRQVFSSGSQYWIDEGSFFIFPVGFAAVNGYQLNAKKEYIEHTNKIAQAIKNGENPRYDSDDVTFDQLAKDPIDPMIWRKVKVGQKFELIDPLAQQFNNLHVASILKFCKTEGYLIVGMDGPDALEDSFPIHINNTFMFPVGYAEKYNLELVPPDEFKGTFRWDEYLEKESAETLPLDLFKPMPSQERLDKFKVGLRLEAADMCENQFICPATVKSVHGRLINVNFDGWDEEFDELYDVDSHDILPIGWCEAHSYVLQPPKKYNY
Put plainly: affinity purification with mass spectrometry; large scale anti-GFP (clone 3E6 on protein A agarose) immunoprecipitation from lysate of embryos expressing LIN-61::GFP; 50 mM HEPES pH 7.6, 140 mM KCl, 10 mM NaCl, 1 mM MgCl2, 1 mM EDTA, 10% glycerol, 0.1% beta-octylglucoside; 4C, 2 hours; parallel IP from untagged control embryos.

As to LIN-13 (from UniProt Q11107 1-2248), the binding result was “binds”.

B1: HPL-2 (protein, UniProt G5EDE2 1-175)
chain: MSSKSTKRAKIEDPKDNVFMVEKVLDKRTGKAGRDEFLIQWQGFPESDSSWEPRENLQCVEMLDEFEREFSKREKPIRKRHSQKPEPSEDQADPEEDKDEKKETNQNDKFSLEGKQLKCIVGLTKGPGELHFLCKFSDDTARLLPAKEVNSRYPSQVIRYYESKLTIQDPKADEL
Regarding B1, the binding result is recorded as “binds”.
